Measured values: publication PMC8660824

By UniProt entry, the sequences of proteins in these tests, tags left out.
UniProt Q14980: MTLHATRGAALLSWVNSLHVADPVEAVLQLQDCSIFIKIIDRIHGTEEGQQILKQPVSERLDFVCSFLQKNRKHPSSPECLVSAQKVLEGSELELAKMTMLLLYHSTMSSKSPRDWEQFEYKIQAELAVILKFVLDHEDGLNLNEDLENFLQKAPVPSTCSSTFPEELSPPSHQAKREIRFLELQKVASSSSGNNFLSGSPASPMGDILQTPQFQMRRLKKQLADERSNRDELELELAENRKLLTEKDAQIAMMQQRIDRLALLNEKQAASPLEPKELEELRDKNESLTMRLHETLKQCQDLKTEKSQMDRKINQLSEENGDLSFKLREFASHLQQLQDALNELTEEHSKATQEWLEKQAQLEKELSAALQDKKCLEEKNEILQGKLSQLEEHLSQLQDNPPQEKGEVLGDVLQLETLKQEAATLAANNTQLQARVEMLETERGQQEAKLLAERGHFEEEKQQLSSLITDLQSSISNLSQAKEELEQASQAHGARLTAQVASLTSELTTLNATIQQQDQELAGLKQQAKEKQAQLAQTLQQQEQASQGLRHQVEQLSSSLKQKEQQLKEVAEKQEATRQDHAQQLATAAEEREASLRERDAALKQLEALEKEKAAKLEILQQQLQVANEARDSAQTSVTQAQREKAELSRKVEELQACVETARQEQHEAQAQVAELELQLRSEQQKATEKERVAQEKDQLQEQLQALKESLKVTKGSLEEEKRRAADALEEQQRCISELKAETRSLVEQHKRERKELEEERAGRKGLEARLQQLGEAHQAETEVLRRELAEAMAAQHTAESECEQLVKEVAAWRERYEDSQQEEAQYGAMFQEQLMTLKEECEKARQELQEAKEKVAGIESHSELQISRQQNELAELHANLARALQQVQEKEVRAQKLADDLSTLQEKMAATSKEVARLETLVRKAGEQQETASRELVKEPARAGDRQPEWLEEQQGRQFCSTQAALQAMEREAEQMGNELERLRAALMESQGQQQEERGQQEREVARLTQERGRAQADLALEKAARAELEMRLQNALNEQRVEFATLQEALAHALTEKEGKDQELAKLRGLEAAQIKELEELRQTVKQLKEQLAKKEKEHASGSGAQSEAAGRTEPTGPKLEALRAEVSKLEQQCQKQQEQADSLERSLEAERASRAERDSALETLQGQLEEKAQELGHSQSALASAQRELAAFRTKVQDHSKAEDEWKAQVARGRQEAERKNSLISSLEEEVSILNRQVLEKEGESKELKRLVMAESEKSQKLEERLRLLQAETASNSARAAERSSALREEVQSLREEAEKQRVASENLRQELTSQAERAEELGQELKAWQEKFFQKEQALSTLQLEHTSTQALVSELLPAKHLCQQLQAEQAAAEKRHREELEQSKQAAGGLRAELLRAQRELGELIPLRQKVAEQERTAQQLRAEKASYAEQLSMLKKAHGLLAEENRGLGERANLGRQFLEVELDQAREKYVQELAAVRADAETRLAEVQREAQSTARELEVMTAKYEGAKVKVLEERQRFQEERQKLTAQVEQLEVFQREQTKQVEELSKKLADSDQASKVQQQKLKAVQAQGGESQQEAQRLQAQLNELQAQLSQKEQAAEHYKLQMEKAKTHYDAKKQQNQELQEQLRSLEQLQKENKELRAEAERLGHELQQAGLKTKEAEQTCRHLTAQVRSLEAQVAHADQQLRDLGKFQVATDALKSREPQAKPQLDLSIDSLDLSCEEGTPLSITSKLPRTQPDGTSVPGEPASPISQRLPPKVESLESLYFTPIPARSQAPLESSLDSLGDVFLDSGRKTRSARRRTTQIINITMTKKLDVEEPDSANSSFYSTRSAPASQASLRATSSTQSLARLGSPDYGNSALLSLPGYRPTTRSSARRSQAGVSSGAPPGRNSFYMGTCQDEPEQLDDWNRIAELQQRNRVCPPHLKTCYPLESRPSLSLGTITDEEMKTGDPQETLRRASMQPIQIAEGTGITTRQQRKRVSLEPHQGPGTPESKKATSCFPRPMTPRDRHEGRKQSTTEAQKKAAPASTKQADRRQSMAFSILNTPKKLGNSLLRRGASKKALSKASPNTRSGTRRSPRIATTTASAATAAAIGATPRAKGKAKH
UniProt O00139: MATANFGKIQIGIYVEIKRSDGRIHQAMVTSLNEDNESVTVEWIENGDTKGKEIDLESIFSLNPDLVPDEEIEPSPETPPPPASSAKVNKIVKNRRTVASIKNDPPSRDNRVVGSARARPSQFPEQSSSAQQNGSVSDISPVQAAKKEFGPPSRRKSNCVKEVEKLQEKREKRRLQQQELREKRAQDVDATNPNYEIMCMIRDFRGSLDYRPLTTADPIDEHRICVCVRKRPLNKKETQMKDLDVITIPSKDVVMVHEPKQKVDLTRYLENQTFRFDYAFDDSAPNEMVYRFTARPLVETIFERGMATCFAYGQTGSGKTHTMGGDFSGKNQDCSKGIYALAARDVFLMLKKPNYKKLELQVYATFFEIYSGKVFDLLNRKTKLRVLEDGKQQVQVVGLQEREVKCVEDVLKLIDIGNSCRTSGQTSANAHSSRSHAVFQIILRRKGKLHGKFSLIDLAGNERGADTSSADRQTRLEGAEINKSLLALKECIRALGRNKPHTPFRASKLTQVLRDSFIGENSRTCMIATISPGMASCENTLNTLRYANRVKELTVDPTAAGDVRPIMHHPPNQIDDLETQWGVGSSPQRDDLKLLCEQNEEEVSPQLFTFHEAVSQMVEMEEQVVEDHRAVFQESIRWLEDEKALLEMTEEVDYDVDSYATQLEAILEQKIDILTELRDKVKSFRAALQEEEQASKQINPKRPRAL

Key:
[1] = biological target: GFP-NuMA (Nuclear Mitotic Apparatus protein, full-length) (human) (UniProt Q14980); assay: affinity purification with mass spectrometry; HEK293T cells transfected with GFP-NuMA, IP with GFP-Trap beads, SDS-PAGE, trypsin digest, Q Exactive Plus
[2] = biological target: GFP-NuMA (Nuclear Mitotic Apparatus protein, full-length) (human) (UniProt Q14980); assay: as above; remark: listed apart in the source

Molecule	binding [1]	binding [2]
Kif2A (from UniProt O00139 1-706)	binds	
KifC1 (protein, UniProt Q9BW19 1-673) MDPQRSPLLEVKGNIELKRPLIKAPSQLPLSGSRLKRRPDQMEDGLEPEKKRTRGLGATTKITTSHPRVPSLTTVPQTQGQTTAQKVSKKTGPRCSTAIATGLKNQKPVPAVPVQKSGTSGVPPMAGGKKPSKRPAWDLKGQLCDLNAELKRCRERTQTLDQENQQLQDQLRDAQQQVKALGTERTTLEGHLAKVQAQAEQGQQELKNLRACVLELEERLSTQEGLVQELQKKQVELQEERRGLMSQLEEKERRLQTSEAALSSSQAEVASLRQETVAQAALLTEREERLHGLEMERRRLHNQLQELKGNIRVFCRVRPVLPGEPTPPPGLLLFPSGPGGPSDPPTRLSLSRSDERRGTLSGAPAPPTRHDFSFDRVFPPGSGQDEVFEEIAMLVQSALDGYPVCIFAYGQTGSGKTFTMEGGPGGDPQLEGLIPRALRHLFSVAQELSGQGWTYSFVASYVEIYNETVRDLLATGTRKGQGGECEIRRAGPGSEELTVTNARYVPVSCEKEVDALLHLARQNRAVARTAQNERSSRSHSVFQLQISGEHSSRGLQCGAPLSLVDLAGSERLDPGLALGPGERERLRETQAINSSLSTLGLVIMALSNKESHVPYRNSKLTYLLQNSLGGSAKMLMFVNISPLEENVSESLNSLRFASKVNQCVIGTAQANRK		binds

Where two headings read alike, the source gives them in different places. Results are given in words; binding and its absence hold for the method and conditions named. In cells and extracts the contact can be indirect. A yes stands for co-enrichment or nearness to the bait. Other partners may have been found.
